According to article PMC7366654:
No constants are given. Whether binding was seen depends on the method and setting. In cells and extracts the contact can be indirect. Some results given as binding are weak or reduced against the parent protein; the word gives no strength.

Legend:
[1] = target: epidermal growth factor receptor, EGFR-FL (human) (UniProt P00533); test: co-IP; whole cell lysates of 293 T cells added to antibody on Protein A magnetic beads, overnight at 4 °C; washes with Triton X-100 buffer (150 mM Tris, 150 mM NaCl, 0.4% NP-40, pH 7.4); immunoblot; which partner was precipitated is not told
[2] = target: EGFR-NT, extracellular domain of epidermal growth factor receptor (human) (UniProt P00533); test: as above

B1: WAP four-disulfide core domain 2 (WFDC2) (protein, UniProt Q14508 31-124)
chain: EKTGVCPELQADQNCTQECVSDSECADNLKCCSAGCATFCSLPNDKEGSCPQVNINFPQLGLCRDQCQVDSQCPGQMKCCRNGCGKVSCVTPNF
In the case of B1, the binding [1] is reported as “binds” and the binding [2] is reported as “binds”.
